# Out of some 340,000 compounds screened, about 6,200 (1.8%) were called active. Inconclusive means that the source gave no clear call. Such entries were picked first, then a sample of the others. The call rests on the fitted dose curve; in most records, active means well fitted activation curve with a large enough effect; inconclusive means small, poorly fitted or top-dose-only effect; inactive means no such curve, though single readings can be large or run the other way. A potency beside an inconclusive call is a rough fit, not a confirmed value.
# Test: A quantitative high throughput screen for small molecules that induce DNA re-replication in SW480 colon adenocarcinoma cells. Further: nearly all actives have a fitted effect of over 55% in size. On re-replication activation: % of control where 0% means no effect.
# Details: Hoechst DNA content imaging, 48 h; re-replication activation: at 46.1 µM (top of the series)
# Procedure, shortened: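 DNA re-replication was detected as more nuclei of elevated Hoechst intensity after 48 hr exposure to compound (23 nL pinned per well of 250 cells).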
# Potency means the concentration at half of the fitted maximal effect.
SMILES,Potency,re-replication activation
O=C(CC(c1ccccc1)c1ccccc1)Nc1ccc(Cl)cn1,"inconclusive: 20.6 µM [activator, single point]",–
O=C1c2ccccc2S(=O)(=O)c2cc(C(=O)N3CCN(c4ccccc4)CC3)ccc21,"inconclusive: 18.4 µM [activator, single point]",–
O=C1C(=O)c2c(C(=O)c3ccccc3)coc2-c2ccccc21,"inconclusive: 29.1 µM [activator, single point]",–
O=C(CSc1ccccn1)Nc1ccc2[nH]c(=O)[nH]c2c1,–,inactive: -14.9%
COc1ccc(N(CC(=O)NCc2cccs2)S(=O)(=O)c2cccc(C)c2)cc1,–,inactive: 4.09%
Cc1ccc(CN(C)C(=O)CCc2nc3sc4c(c3c(=O)[nH]2)CCCC4)o1,"inconclusive: 29.1 µM [activator, single point]",–
CC1=CC(C)(C)N2C(=O)C(=O)c3cc(OC(=O)c4ccco4)cc1c32,active: 1.3 µM,–
Cn1c(=O)c2c(nc(NCc3ccco3)n2Cc2ccc(Cl)cc2Cl)n(C)c1=O,–,inactive: -0.426%
CC(C(=O)NC1C=CS(=O)(=O)C1)N1C(=O)/C(=C/c2cccc(Cl)c2)SC1=S (stereo not given),–,inactive: 7.44%
CCOC(=O)N1CCN(C(=O)c2cc3c(-c4cccc(OC)c4)nn(C)c3s2)CC1,–,inactive: 23.2%
CS(=O)(=O)c1cccc(C(=O)Nc2nnc(C3=COCCO3)o2)c1,"inconclusive: 6.51 µM [activator, single point]",–
COC(=O)c1cc(C(=O)OCC(=O)NNC(=O)c2cccs2)cc([N+](=O)[O-])c1,active: 2.91 µM,–
COc1ccc(C(=O)Nc2ccc3ccccc3n2)c(OC)c1OC,–,inactive: 3.57%
O=C(O)[C@@H]1Cc2c([nH]c3ccccc23)C2CCC(=O)N21 (stereo not given in full),–,inactive: -2.07%
CC12CC3(C)CC(C)(C1)CC(C(=O)NC(=S)N1CCCC1)(C2)C3,"inconclusive: 5.8 µM [activator, partial curve, poor fit]",–
CCCCN(C(=O)CSCC(=O)Nc1ccc(OC)cc1)c1c(N)n(CC(C)C)c(=O)[nH]c1=O,"inconclusive: 1.84 µM [activator, full curve, poor fit]",–
CCCC(CCC)C(=O)Nc1ccc2c(c1)N(C(=O)CCN1CCN(C)CC1)c1ccccc1CC2,"inconclusive: 18.4 µM [activator, single point]",–
CC(C)Cn1[nH]c2c3c(ccc2c1=O)C(=O)c1ccccc1C3=O,"inconclusive: 29.1 µM [activator, single point]",–
CCCCCCn1c(SCCCC)nc2c1c(=O)[nH]c(=O)n2C,–,inactive: 0.0514%
CNCc1c(OCc2ccccc2F)ccc2ccccc12,"inconclusive: 29.1 µM [activator, single point]",–
O=C(CCNS(=O)(=O)c1ccccc1)Nc1ccccc1,–,inactive: -0.237%
O=C(C[C@H]1C[C@H](C(=O)N2CCOCC2)[C@@]2(CCC3CCCC3)c3[nH]c4ccc(Cl)cc4c3CCN2C1=O)NCc1ccco1,"inconclusive: 20.6 µM [activator, single point]",–

# One compound at a time (already shown). Order of values: Potency	re-replication activation
# CC12CC3(C)CC(C)(C1)CC(C(=O)NC(=S)N1CCCC1)(C2)C3 in the list: inconclusive: 5.8 µM [activator, partial curve, poor fit]	–
# CC(C)Cn1[nH]c2c3c(ccc2c1=O)C(=O)c1ccccc1C3=O in the list: inconclusive: 29.1 µM [activator, single point]	–
# Cn1c(=O)c2c(nc(NCc3ccco3)n2Cc2ccc(Cl)cc2Cl)n(C)c1=O in the list: –	inactive: -0.426%

# (further entries)

SMILES,Potency,re-replication activation
Cc1ccc(O)c(-c2cc(-c3cccc(F)c3)n[nH]2)c1,"inconclusive: 23.1 µM [activator, partial curve, poor fit]",–
COc1ccc(N2CCN(CC(=O)Nc3ccccc3C(=O)NCc3ccccc3)CC2)cc1,–,inactive: -17.3%
CCN(c1ccc(OC)cc1)S(=O)(=O)c1ccc2c(c1)CCN2C(=O)CCC(=O)O,"inconclusive: 2.31 µM [activator, partial curve, poor fit]",–
COc1ccc(-c2nn(-c3ccccc3)cc2/C=N/O)cc1,"inconclusive: 29.1 µM [activator, single point]",–
COc1cc2c(-c3ccccc3)c(C)oc2cc1/C=N/NC(N)=S,"inconclusive: 23.1 µM [activator, partial curve, poor fit]",–
CC1(C)SC(=S)N(NC(=O)Nc2cccc3ccccc23)C1N(O)C(=O)Nc1ccccc1 (stereo not given),"inconclusive: 20.6 µM [activator, single point]",–
O=C(c1ccc2c(c1)N(Cc1ccccc1F)C(=O)c1ccccc1S2(=O)=O)N1CCCC1,–,inactive: -20.4%
CC1CCCC(C)N1C(=O)CSc1nnc(C2CCCCC2)o1 (stereo not given),–,inactive: 2.34%
N#C/C(=C\c1ccco1)C(=O)Nc1cccc2ncccc12,"inconclusive: 20.6 µM [activator, single point]",–
CCOc1ccc(Br)cc1C1=NN(C(C)=O)C(c2ccc([N+](=O)[O-])s2)O1 (stereo not given),active: 8.2 µM,–
CC(NC(=O)/C=C/c1ccccc1[N+](=O)[O-])C1CC2CCC1C2 (stereo not given),–,inactive: -4.65%
c1ccc2c3c([nH]c2c1)-c1[nH]ncc1CC3,"inconclusive: 29.1 µM [activator, single point]",–
Cc1csc(NC(=O)CSc2ccc(-c3ccccn3)nn2)n1,"inconclusive: 25.9 µM [activator, single point]",–
Cc1c(C(=O)Nc2cnccn2)oc2ccccc12,"inconclusive: 20.6 µM [activator, single point]",–
CC(=O)CSc1nc(N)c(C#N)c(-c2cccs2)c1C#N,–,inactive: 0.272%
O=C1N[C@@H](c2ccccc2)COC(=O)[C@@H](Cc2ccc(F)cc2)CC/C=C/C[C@@H]1CC(=O)N(CCO)Cc1ccccc1,–,inactive: -6.12%
CCN(C[C@H]1N[C@@](C)(C(=O)OC)[C@H]2C(=O)N(C)C(=O)[C@@H]12)C(=O)C1CCCCC1,"inconclusive: 0.092 µM [activator, full curve, poor fit]",–
CCN1CCN(CCCOc2ccc(Cl)cc2Br)CC1,"inconclusive: 2.59 µM [activator, partial curve, poor fit]",–
O=S(=O)(Cc1cc(-c2ccccc2)no1)c1ccccc1,"inconclusive: 32.6 µM [activator, partial curve, poor fit]",–
CCOc1ccc2nc(NC(=O)C3(C)CC3(Br)Br)sc2c1 (stereo not given),"inconclusive: 0.146 µM [activator, full curve, poor fit]",–
CC(=O)Nc1ccc(C(=O)OCC(=O)NCc2ccccc2)cc1,"inconclusive: 14.6 µM [activator, single point]",–
O=C(/C=C/c1ccc(Cl)cc1)Nc1cc(S(=O)(=O)N2CCOCC2)ccc1N1CCOCC1,"inconclusive: 29.1 µM [activator, single point]",–

SMILES,Potency,re-replication activation
COc1ccc(Nc2nc(N)c([N+](=O)[O-])c(N3CCCC3)n2)cc1,"inconclusive: 16.4 µM [activator, single point]",–
O=C(OCc1ccccc1)c1ccc(NCc2cc(O)ccc2O)cc1,"inconclusive: 23.1 µM [activator, partial curve, poor fit]",–
CCOc1ccccc1-c1c2cc(O)c(=O)cc-2oc2cc(O)c(O)cc12,"inconclusive: 17.8 µM [activator, single point]",–
COc1cc(C(=O)Sc2ccc(Cl)cc2)cc(OC)c1OC,"inconclusive: 25.9 µM [activator, single point]",–
Cc1nc2nc(-c3ccc(Cl)cc3)cn2nc1C,"inconclusive: 2.31 µM [activator, partial curve]",–
CCCCC(C(=O)NC1CCCC1)N(C(=O)c1snc(C(N)=O)c1N)c1ccc(F)cc1 (stereo not given),–,inactive: 27.7%
O=C(COc1ccc(S(=O)(=O)N2CCOCC2)cc1Cl)N1CCOCC1,"inconclusive: 8.91 µM [activator, single point]",–
CC(=O)Nc1ccc(C(=O)Nc2ccc(S(=O)(=O)Nc3nccc(C)n3)cc2)cc1,"inconclusive: 29.1 µM [activator, single point]",–
Cc1cc(OCc2nc(N)nc(N)c2-c2ccc(Cl)c(Cl)c2)ccc1[N+](=O)[O-],"inconclusive: 4.11 µM [activator, partial curve, poor fit]",–
COc1cccc(-c2c(C(=O)N/N=C/C3CC=CCC3)nnn2-c2nonc2N)c1 (stereo not given),"inconclusive: 14.6 µM [activator, single point]",–
COc1ccc(N(CC(=O)Nc2ccccc2Cl)S(=O)(=O)c2ccc(C)cc2)cc1OC,active: 3.26 µM,–
O=C(c1c(F)cccc1F)N1CCCC(c2nc(-c3ccc(F)cc3)no2)C1 (stereo not given),"inconclusive: 18.4 µM [activator, single point]",–
Cc1c(NC(=O)/C(C#N)=C/c2ccc(-c3cc(Cl)ccc3Cl)o2)c(=O)n(-c2ccccc2)n1C,active: 20.6 µM,–
Cc1ccccc1NC(=O)COC(=O)CCC(=O)c1cccs1,"inconclusive: 29.1 µM [activator, single point]",–
O=C(CCl)N(c1ccccc1)c1c[nH]c2ccccc12,"inconclusive: 4.11 µM [activator, full curve, poor fit]",–
COc1ccccc1/C=C/c1nc(C#N)c(N(C)C)o1,"inconclusive: 29.1 µM [activator, single point]",–
CCN1CCN(C(=O)/C(=C/c2cccs2)NC(=O)c2ccc(C)c(C)c2)CC1,"inconclusive: 29.1 µM [activator, single point]",–
O=C(c1cc2ncc(Br)cn2n1)N1CCCCC1,"inconclusive: 0.184 µM [activator, full curve, poor fit]",–
CC(C)COc1nc2ccccc2nc1N1CCN(C)CC1,"inconclusive: 7.31 µM [activator, partial curve, poor fit]",–
C#CCOCCOCCOCCNc1nc(N2CCN(C(=O)CCCCCCCCCCNC(=O)[C@@H](CCSC)n3cc(CCO)nn3)CC2)nc(N2CCN(C(=O)CCCCCCCCCCNC(=O)[C@H]([C@@H](C)CC)n3cc(CCCCCN)nn3)CC2)n1,–,inactive: 1.71% [at 9.22 µM]
CC1(C)CC(=O)C2=C(C1)Nc1ccccc1NC2,"inconclusive: 6.51 µM [activator, partial curve, poor fit]",–
